Assay results taken from patent US20250163388A1, “METHODS FOR DERIVATION AND PROPAGATION OF AVIAN PLURIPOTENT STEM CELLS AND APPLICATIONS THEREOF” (UNIVERSITY OF SOUTHERN CALIFORNIA, priority 2022, published 2025).
Some results were stated once for a whole list of compounds, not compound by compound. For at least one compound, name, drawing or mass did not settle the structure.

System: chicken blastodermal cells / chicken ESCs
Test: Derivation and self-renewal culture of chicken ESCs from EGK.X blastodermal cells
Format: cell-based
Details: without yolk or ovotransferrin; FIG. 8D
Procedure: Freshly laid avian fertile eggs at EGK.X-XII stages were kept at 16° C. before extraction. To harvest cells from yolk, a filter paper-based method was applied. Filter paper with a hole at center was placed on top of the embryo. The outer edge of the filter paper was cut together with the vitelline membranes. Embryo were then released from yolk together with the filter paper and washed in PBS solution. Next, embryo was transferred into a 15 ml tube free of the paper ring and dissociated by pipetting inside N2B27 medium. Dissociated cells were cultured in tissue plates coated with irradiated mouse embryonic fibroblast (MEF) cells as feeder layer. Basal medium used for routine ESC maintenance was N2B27 medium composed of Dulbecco's Modified Eagle Medium/Nutrient Mixture F-12 (DMEM/F12):Neuralbasal (1:1) plus 0.5×N2, 0.5×B27 supplement and 20 μg/ml ovotransferrin with the addition of 1× penicillin-streptomycin. Avian ESC self-renewal was kept with 2.5 μM IWR-1, 2 μM Gö6983, 2 μM SB431542 plus chicken LIF (10 ng/ml for ESCs and 40 ng/ml for other avian ESCs). ESCs were cultured at 38° C. in 5% CO2 with daily medium change. To passage, TrypLE was used to incubate the cells for 5 min and neutralized with basal medium in triple amount. Cells were handled with 5 ml pipette all the time to avoid dissociation into singles. Cells can be frozen in Cellbanker 2 and stored at −150° C.

SMILES: COc1ccc2c(c1)c(C1=C(c3c[nH]c4ccccc34)C(=O)NC1=O)cn2CCCN(C)C [Gö6983]
- passages for which chicken ESCs could be maintained: ≤ 2 passages
